# Some of the results follow. Further columns of the screen follow, without active or inactive calls. Most of these compounds were active or inconclusive in the main read-out, so they are no random draw. The note in brackets gives the kind of curve behind each potency; many fits are weak.
# Experiment: qHTS Assay for Lipid Storage Modulators in Drosophila S3 Cells;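 for cell number change: cells counted by Cell Tracker Red CMTPX staining in the red channel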
# Conditions: BODIPY lipid droplet fluorescence, 18-24 h; for cell number change: measured here: cell count max response, cells fed with added oleic acid
# Procedure, shortened: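 Drosophila S3 cells got compounds at several concentrations plus oleic acid (400 uM solution). Laser-scanning cytometry with 488 nm excitation read lipid droplets at 500-530 nm and cells at 575-640 nm. Percent activity was relative to 20 uM Triacsin C.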
# [1] = measured here: cell number channel AC50, cells fed with added oleic acid
# [2] = measured here: lipid fluorescence (Fed channel) AC50, cells fed with added oleic acid
Compound,cell number change [%],AC50 [1],AC50 [2]
O=C(N/N=C/c1ccsc1)c1cc(-c2ccncc2)nc2ccccc12,20.6,,
CCN(CC)C(=O)CSc1ccc(C(F)(F)F)cc1[N+](=O)[O-],-57.1,"20.6 µM [falling, single point]",
O=C1C2C(c3ccccc3)C=CC(c3ccccc3)C2C(=O)N1C1CCCCC1 (stereo unspecified),38,"1.46 µM [rising, full curve, poor fit]",
Cc1ccc(-n2c(CSc3nc(C)cc(C)n3)nnc2SCC(=O)NCc2ccco2)cc1,-22.5,,"16.4 µM [falling, partial curve, poor fit]"
Cc1ccccc1NC(=O)CSc1nc2ccccc2c(=O)n1CC1CCCO1 (stereo unspecified),,,"29.1 µM [rising, single point]"
COc1ccc(-c2nc(C#N)c(N3CCCCC3)o2)cc1,20.4,,"9.2 µM [rising, partial curve, poor fit]"
Cc1ccc(C)c(C(=O)CSc2n[nH]c(-c3ccncc3)n2)c1,-11.4,,"2.91 µM [falling, single point]"
CC(=O)N1CCc2cc(S(=O)(=O)Nc3cccc(C(F)(F)F)c3)ccc21,4.9,"6.51 µM [rising, single point]",
COc1ccc(-n2c(=O)c3ccccc3n(CC(=O)Nc3cc(C)on3)c2=O)cc1OC,-10.7,,"1.84 µM [rising, partial curve]"
CCn1cc([N+](=O)[O-])c(C(=O)Nc2ccc(Br)cn2)n1,6.26,,"0.731 µM [rising, full curve, poor fit]"
CCOc1ccc(S(=O)(=O)NC2CCCC2)cc1C,-19.3,,
CCOC(=O)c1sc(NC(=O)C2CC(=O)N(c3ccc4c(c3)OCCO4)C2)nc1C (stereo unspecified),22.3,,
Cc1cc(C)n(-c2nc(N(C)C)nc(N3CCOCC3)n2)n1,58.9,"7.31 µM [rising, partial curve]",
COc1ccc(NC(=O)CCN2CCC(C)CC2)cc1,-51.7,"0.731 µM [falling, full curve]","29.1 µM [falling, single point]"
O=C(C1CCN(S(=O)(=O)c2ccc3c(c2)OCCO3)CC1)N1CCc2ccccc21,36.5,"0.231 µM [rising, partial curve]",
O=S(=O)(c1ccc(Br)s1)N1CCNCC1,16.5,,"2.91 µM [rising, full curve, poor fit]"
Cc1csc(CNC(=O)c2cc(COc3c(C)cccc3C)on2)n1,-27.2,,"0.58 µM [falling, single point]"
N#Cc1c(-c2cccs2)cc(-c2cccnc2)nc1N,,,"29.1 µM [falling, single point]"
COc1cccc(CN2CCN(C(=O)C3CCC(=O)N(C4CCCC4)C3)CC2)c1 (stereo unspecified),17.9,"6.51 µM [rising, single point]",
COc1ccccc1OCCCOc1ccc(/C=C2\SC(=O)NC2=O)cc1OC,-35.4,,
c1csc(Cc2nn3c(-c4ccncc4)nnc3s2)c1,-14.4,,"0.82 µM [rising, full curve]"

Compound,cell number change [%],AC50 [1],AC50 [2]
COc1cccc(C(=O)Nc2ccccc2C(=O)NCC2CCCO2)c1 (stereo unspecified),-9.39,,"29.1 µM [falling, partial curve, poor fit]"
Cc1ccc(CN2C(=O)NC(Cc3c[nH]c4ccccc34)C2=O)cc1 (stereo unspecified),15.4,,"0.00517 µM [rising, full curve, poor fit]"
C/C(CC(=O)Nc1ccc2c(c1)OCCO2)=N\NC(=O)COc1ccccc1C,,,"29.1 µM [rising, partial curve]"
COCC(=O)Nc1cc(OC)ccc1OC,-2.77,,"2.59 µM [falling, single point]"
O=C(c1ccco1)N1CCN(C(=S)NC2CC3CCC2C3)CC1 (stereo unspecified),-18.4,,"29.1 µM [falling, partial curve, poor fit]"
COCCCNC(=S)N/N=C/c1ccc(O)cc1,23.6,,"0.517 µM [falling, single point]"
CCOc1ccccc1NC(=O)COC(=O)C1CC1,-29.1,,"7.31 µM [falling, partial curve]"
Cc1ccc(S(=O)(=O)N2CCCCC2)cc1NC(=O)Cn1ccsc1=N,-11.4,"4.11 µM [falling, single point]","23.1 µM [falling, partial curve]"
CN(CC(=O)NCc1ccncc1)S(=O)(=O)c1ccc(Cl)cc1,-37.8,,
CC(=O)Nc1ccc(S(=O)(=O)N(CCO)Cc2ccccc2)cc1,60.9,"18.4 µM [rising, single point]","6.51 µM [rising, single point]"
COc1ccc(C)cc1S(=O)(=O)N(C)CC(=O)N1CCCCCC1,8.43,,"13 µM [rising, partial curve, poor fit]"
Nn1c(SCC(=O)NCc2ccccc2)nnc1C1CC1,3.53,,"0.651 µM [rising, full curve]"
O=C(Nc1ccccc1)Nc1cccc(Cl)c1,-93.2,"29.1 µM [falling, single point]",
CCN(CC)C(=O)c1c(-c2ccccc2)oc2ccc(OC)cc12,34.4,"13 µM [rising, partial curve, poor fit]","20.6 µM [rising, partial curve]"
CCSc1nnc(NC(=O)COc2ccc(Cl)cc2)s1,-50.5,"32.6 µM [falling, single point]",
Cc1ccc(C(=O)NCC(=O)Nc2ccc3c(c2)CCC3)cc1C,-15.9,,"29.1 µM [falling, single point]"
CN(NS(=O)(=O)c1ccc(Br)cc1)c1nc(C(F)(F)F)nc2ccccc12,8.01,,
CC1(C)Cc2c(C#N)c(N)n(-c3ccccc3)c(=O)c2CO1,4.19,,"0.0058 µM [rising, full curve, poor fit]"
COc1ccc(CNC(=O)CCC(=O)Nc2cccnc2)cc1,-0.324,,"0.116 µM [falling, full curve, poor fit]"
O=C(Cc1c[nH]c2ccccc12)N1CCN(S(=O)(=O)c2ccc(Cl)cc2)CC1,26,,

# Reprinted at random: 2 entries already listed, in no set order.
Compound,cell number change [%],AC50 [1],AC50 [2]
O=C(Nc1ccccc1)Nc1cccc(Cl)c1,-93.2,"29.1 µM [falling, single point]",
COCC(=O)Nc1cc(OC)ccc1OC,-2.77,,"2.59 µM [falling, single point]"
